Percent effect of library compounds

The values are deposited in ChEMBL (CHEMBL3988442, “University of Dundee, Small-Polar-MMV Screening Library” (2021)).

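Phenotypic screen: M. tuberculosis growth, glucose 7H9 medium, 3 days; the read-out is not stated. Concentration: 50 µM. The record gives no direction; compounds that gave an IC50 in retests scored well above the rest, so higher reads as more growth inhibition. Size under these conditions: about 69,000 compounds, about 760 of them at 50% or above in at least one test.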

Each number is a percent effect as filed. How 0% and 100% were set is not recorded. Most values in the screen are low, and negative values occur. This is an unselected part of the compounds tested. Two or more numbers in one place are separate tests of the same structure; such repeats can differ widely.

compound | Percent Effect
Cc1csc2ncnc(N3CCC(Cn4cc(C(C)(C)N)nn4)CC3)c12 | 16.11%
CC(C)(C)OC(=O)N(CCNS(=O)(=O)N1CCOCC1)C1CC1 | -14.13%
O=C(NCC1(CO)CC1)c1ccccc1F | -1.148%
CC(C)(C)c1nnc2n1C(C(=O)N1CCN(c3ncccn3)CC1)CC2 (stereo not shown) | 6.113%
O=C(Cc1ccsc1)N1CCC(c2ccncc2)CC1 | -18.72%
CN1CCc2c(c(COc3cncnc3)nn2CC2CC2)C1.O=C(O)C(F)(F)F | -0.7339% and -10.06%
[H][C@@]12CN(c3cc(OC)ncn3)C[C@H](C(=O)N3CCCC3)[C@]1([H])CCO2 | -16.01%
Cn1cncc1CNC1CC2(CCN(CC3CC3)CC2)c2ccccc21.O=C(O)C(F)(F)F.O=C(O)C(F)(F)F (stereo not shown) | -4.488% and 0.1795%
Cc1cc(C(=O)Nc2ccn(CCCN3CCCC3)n2)c(C)o1 | 3.676%
CCn1cc(NC(=O)C(C)n2ncc(Cl)c2C)c(C(=O)OC)n1 (stereo not shown) | -1.421%
Cc1ccc(NC(=O)C2CSCN2C(=O)c2ccncc2)c(C)c1 (stereo not shown) | 11.45%
CC(C)CN(C)Cc1c[nH]nc1-c1ccc(F)cc1F | -2.262%
CC(C)(C)c1cc(NC(=O)CN2CCCC2Cn2cccn2)on1 (stereo not shown) | -4.913%
Cc1nc(C(=O)N(C)CC2CC2)nn1-c1ccccc1C(C)C | 1.803%
CC(C)C(=O)NCc1ccnc(Oc2ccc(F)cc2)c1 | 25.02% and 6.553%
CNC(=O)C1=NOC2(CCN(Cc3nccs3)C2)C1 (stereo not shown) | -6.792%
O=C(O)C(F)(F)F.O=C(O)C(F)(F)F.[H][C@@]12COC[C@]1(CNC(=O)N1CCCC1)CN(Cc1cccc(C)n1)C2 | 10.7%
[H][C@]12CC[C@]([H])(CN(C(=O)N(C)C)C1)N(C(=O)CCn1ccnc1CC)C2 | 6.954%
CC(C)c1ccc(C(N)c2cccs2)cc1 (stereo not shown) | -47.14%
O=C(CC1CCc2ccccc21)NCCSc1ccccn1 (stereo not shown) | -20.36%
CCOCCOCc1cccc(CNc2cncc(-n3cccn3)n2)c1 | 13.82%
CN1CCOC(CNCC(=O)NCCCc2ccccc2)C1 (stereo not shown) | -0.6088%
c1coc(CN2CCn3c(CN4CCOCC4)nnc3C2)c1 | -2.911% and 12.39%
O=C(c1ccc(Cl)cn1)N1CCC(COCc2ccccc2)C1 (stereo not shown) | 10.42%
Cc1cc(C)cc(N2CCN(Cc3cccnc3)CC2=O)c1 | -26.86%
Cc1cc(C2CCCN(CCCS(C)(=O)=O)C2)n[nH]1 (stereo not shown) | 1.983% and -3.172%
NCc1cn(-c2ccccc2C(=O)NCc2cccc(Cl)c2)cn1 | 4.789%
Cc1nc(O)cc(CCNC(=O)c2ccc(CN3CCCCC3)cc2)n1 | 3.837%
COCCCn1c(CN2CCCCO2)cnc1S(=O)(=O)C1CCCC1 | 2.256%
CSCC(=O)N1CCCC(c2cc(C)[nH]n2)C1 (stereo not shown) | 15.14%
O=C(Nc1ccc(Cl)cn1)C1CCCN(CCc2ccccn2)C1 (stereo not shown) | -1.244%
CSc1c[nH]nc1NS(=O)(=O)c1cc(F)ccc1C | 1.863%
Cn1cc(CN2CCCC3(CCN(C(=O)c4ccoc4)C3)C2)cn1 (stereo not shown) | -2.677%
COc1cc(C)c(NC(=O)CCn2cccc2)cc1OC | -0.9113%
CCC(CO)N(Cc1ccccn1)C(=O)c1ccc(F)c(F)c1 (stereo not shown) | -0.3808%
Cc1csc(N2CCN(CC(=O)Nc3ccncc3)CC2C)n1 (stereo not shown) | 12.69%
CN1CCN(CC2(O)CCCN(S(=O)(=O)c3cn[nH]c3)CC2)CC1 (stereo not shown) | 10.63%
CN(c1ccc(C(C)(C)C)cc1)S(=O)(=O)c1cc(C(=O)O)cs1 | 26.74%
O=C(CCCn1cncn1)N1CCC2(CCCN(C3CCCC3)C2=O)C1 (stereo not shown) | -22.67%
CCCNC(=O)COc1ccc(C)cn1 | 33.97%
Cc1cc2nc(C(C)C)cc(N(C)CC3CCN(C(C)C)C3)n2n1 (stereo not shown) | 40.2% and 48.33%
Cc1nc(CN2CCCC(CCc3ccc(F)c(F)c3)C2)c[nH]1 (stereo not shown) | 46.73%
O=C(NCCCO)c1cc(-c2ccc3c(c2)CCO3)n[nH]1 | 16.63%
CC1CCCCN1CCN(C)C(=O)c1cc(CN2CCC(O)CC2)on1 (stereo not shown) | -17.41%
c1ccc(Cc2noc(CN3CCCCC3Cn3cncn3)n2)cc1 (stereo not shown) | -38.87%
COCCn1c2c(ccc1=O)CCN(C(=O)NC1CC1)CC2 | 7.543%
Cc1cc(Br)cnc1NCCN1CCC(N(C)C)CC1 | 7.761%
O=C(O)C(F)(F)F.[H][C@@]12CCN(Cc3ccco3)C[C@]1([H])[C@@H](CNC(=O)c1ccsc1)OC2 | 7.032%
COc1ccc(CC(=O)Nc2ccc3ncn(C(C)C)c(=O)c3c2)cc1 | 15.54% and 8.775%
O=C(c1cccc(-n2cnnc2)c1)N1C[C@@H](O)[C@H](N2CCOCC2)C1 | 16.98%
CC(NCc1ccc(OCC(N)=O)cc1)c1ccc2c(c1)CCCC2 (stereo not shown) | 57.16%
CC(C)C1CN(C(=O)c2ccc(Cl)cn2)CCCN1CC1CC1 (stereo not shown) | -15.41%
[H][C@]12CC[C@]([H])(CN(C(=O)c3ccc(C)nc3)C1)N(Cc1ccccc1)C2 | -5.281%
Clc1snnc1CN1CCCC1Cn1cncn1 (stereo not shown) | -81.26%
COCCN1CCCC2(CCN(c3ncc(Cl)cc3Cl)C2)C1=O (stereo not shown) | 28.37% and 6.785%
Cc1ccc(C(=O)NCCCS(C)(=O)=O)c(=O)[nH]1 | -6.766%
O=C1CN(CC2CC2)Cc2nc(NCCc3ccccn3)sc21 | -28.03%
Cc1ccc(-c2nc(CN3CCC(N4CCNC4=O)CC3)co2)cc1 | -1.552%
Cc1ncccc1Oc1ncnc(N2CCC(O)(CO)CC2)c1C | -8.508%
CNc1ccnc(N2C[C@@H](C)[C@](O)(C3CCC3)C2)n1 | 21.23%
Cc1cc(-c2cnc(NC3CC3)nc2-c2ccco2)on1 | 37.59%
O=C1CCCN1Cc1nnc2n1CCN(Cc1ccco1)C2 | -21.97%
Cc1noc(C)c1CN1CCn2c(CN3CCN(C)CC3)cnc2C1.O=C(O)C(F)(F)F.O=C(O)C(F)(F)F.O=C(O)C(F)(F)F | -8.063% and -4.016%
O=C1CCCc2cc(S(=O)(=O)NCc3ccccn3)ccc2N1 | 9.46%
CC(C)(C)Oc1ccncc1NCc1cscn1 | -6.342%
CCc1ncc(CN(CCc2ccccc2)Cc2cccs2)cn1.O=C(O)CC(O)(CC(=O)O)C(=O)O | 55.69%
O=C(NCc1ccc(Cl)s1)NCc1nnc2n1CCCCC2 | 24.19%
CSCCc1c(-c2ccccc2)ncn1CC(C)(C)N1CCCC1 | 15.57%
Cc1c(C(=O)NC2CCCOC2)nnn1-c1ccccc1 (stereo not shown) | -12.39%
CCN(Cc1ccco1)C(=O)NCC(C)N1CCc2sccc2C1 (stereo not shown) | -14.13%
Cc1ccc(C)c2c(=O)cc(CN3CC[C@@H](N)[C@H](O)C3)[nH]c12 | -19.76%
NC(=O)N1CCCC(C(=O)Nc2cccc(Cl)c2)C1 (stereo not shown) | 17.26% and -2.914%
Cc1nc(-c2ccc(S(=O)(=O)N3CCCCC3)cc2)co1 | 14.54%
COc1ccccc1N1CCN(C(=O)CSCC2CC2)C(C)C1 (stereo not shown) | -23.81% and -0.2591%
CC(C)c1noc(C2CCCN2S(=O)(=O)Cc2ccc(F)cc2)n1 (stereo not shown) | 4.145%
CC(c1nc(C2CC2)no1)N1CCc2c(ncn2C)C1 (stereo not shown) | 24.92%
O=C(O)C(F)(F)F.[H][C@@]12OCCN(c3ncccn3)[C@@]1([H])CC[C@H]2OCC(=O)N(C)C | -11.09% and -25.46%
CC(=O)NCCC(=O)NCc1cccnc1-n1cnc2ccccc21 | -12.63%
Cc1ccc2cnn(CCC(=O)NCc3c(C)nn(C)c3C)c2c1 | -15.56%
O=C1CC(N(C(=O)c2ccccc2Br)C2CC2)C(=O)N1 (stereo not shown) | 21.13% and -0.2063%
CC(C)(C)c1nnc(CN2CCCC(c3cc(C(N)=O)[nH]n3)C2)o1 (stereo not shown) | -35.14%
Cl.O=C(O)CN1CCC(C(F)(F)F)CC1 | 20.27%

Some entries from above, unchanged:

compound,Percent Effect
Cc1cc(Br)cnc1NCCN1CCC(N(C)C)CC1,7.761%
Cc1ncccc1Oc1ncnc(N2CCC(O)(CO)CC2)c1C,-8.508%
CC(C)c1ccc(C(N)c2cccs2)cc1 (stereo not shown),-47.14%
COCCCn1c(CN2CCCCO2)cnc1S(=O)(=O)C1CCCC1,2.256%
c1coc(CN2CCn3c(CN4CCOCC4)nnc3C2)c1,-2.911% and 12.39%
COc1ccc(CC(=O)Nc2ccc3ncn(C(C)C)c(=O)c3c2)cc1,15.54% and 8.775%
Cc1ccc(C(=O)NCCCS(C)(=O)=O)c(=O)[nH]1,-6.766%
Cc1ccc2cnn(CCC(=O)NCc3c(C)nn(C)c3C)c2c1,-15.56%
CCN(Cc1ccco1)C(=O)NCC(C)N1CCc2sccc2C1 (stereo not shown),-14.13%
O=C(O)C(F)(F)F.[H][C@@]12CCN(Cc3ccco3)C[C@]1([H])[C@@H](CNC(=O)c1ccsc1)OC2,7.032%
CC(C)(C)c1nnc2n1C(C(=O)N1CCN(c3ncccn3)CC1)CC2 (stereo not shown),6.113%